PubChem BioAssay AID602196 – INSERM – 2012

Assay: 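Knock-downs that protect lung cancer cells from cisplatin or sensitise them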
System: human A549 lung cancer cells
Knock-down reagent: siRNA pair against human genes
Timing: 48 h transfection before cisplatin; time from cisplatin to read-out not stated
Challenge: cisplatin at a dose killing half of control-siRNA cells; exact dose and duration not given
Detection: 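Cisplatin cell death as a shift from the 50% death seen with control siRNA; siRNAs toxic or growth-blocking alone scored 0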
Scale: two-siRNA summed score (-2 to +2): higher = both siRNAs protect from cisplatin killing; -2 means both sensitise; mean protection from cisplatin (shift in death) and protection from cisplatin (shift in death), siRNA C and protection from cisplatin (shift in death), siRNA D: higher = protection from cisplatin killing
Call rule: 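Each siRNA scores 0 if harmful alone by LDH or WST-1, otherwise +1 if it reduces and -1 if it increases cisplatin killing; a gene is active when both siRNAs agree (sum +2 or -2)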
Meaning of the calls: active = both siRNAs shift cisplatin killing the same way; inactive = no consistent shift, or siRNA harmful alone
This is an unselected part of about 23,000 reagents. In the full data, 455 (2%) got an active call. 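Active includes both protection and sensitisation; some change values fall well beyond the stated -50 to +50 range.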 A number with no mark means an inactive call. The numbers tell different reagents against one gene apart. The record does not give: the amount of reagent.

no.	gene	reagent no.	two-siRNA summed score (-2 to +2)	mean protection from cisplatin (shift in death) (%)	protection from cisplatin (shift in death), siRNA C (%)	protection from cisplatin (shift in death), siRNA D (%)
1	BRSK1	1	-1	-8.2	-14	-2.3
2	LOC441356	1	0	4.7	3.6	5.7
3	HACD4	1	0	8.8	12.5	5
4	GLRX5	1	0	10.3	16.2	4.5
5	LOC343854	1	0	2.8	7.7	-2.1
6	UBTF	1	0	13.9	12.5	15.4
7	RAD23A	1	0	10.1	7.3	13
8	OR1A2	1	0	-4	-3.8	-4.1
9	GPR149	1	-1	-5.2	-0.6	-9.7
10	ST8SIA5	1	0	5.6	1	10.3
11	LOC401016	1	0	2.8	6.6	-1
12	LOC139263	1	0	0.1	4.9	-4.8
13	LRFN3	1	1	16.2	19.3	13.1
14	OR4L1	1	0	7.1	8.2	6.1
15	OR9Q1	1	0	4.1	2.9	5.4
16	LOC339065	1	0	10.3	7.7	13
17	RGS18	1	-1	-6.2	-19.7	7.2
18	RPS15A	1	0	14.1	0.5	27.7
19	RPS15A	2	0	22.3	1.4	43.1
20	CLPSL2	1	-1	-8.1	-5.5	-10.7
21	OR5V1	1	0	0.7	-0.6	1.9
22	MAD2L2	1	0	-11.8	-11.4	-12.3
23	ANAPC13	1	0	0.6	-2.1	3.3
24	DRC9	1	0	12.9	9.4	16.3
25	PHACTR2-AS1	1	0	3.6	7	0.2
26	SWAP70	1	0	4.5	11.6	-2.6
27	LOC390734	1	0	9.9	-16.4	36.1
28	SUMO1P3	1	0	1.6	8.6	-5.5
29	PLD4	1	0	-0.5	8.8	-9.8
30	SHARPIN	1	1	20.5	11.5	29.5
31	LMO1	1	0	-1.4	-11.1	8.2
32	PNMA3	1	1	6.5	-5.2	18.2
33	SHISA2	1	0	8.5	8.7	8.2
34	LOC440002	1	0	5.9	4.3	7.4
35	LINC01164	1	0	18.6	12.9	24.3
36	TXLNG	1	0	7.5	4.3	10.7
37	LOC389873	1	2 (active)	21.5	26.6	16.5
38	NXF2	1	-1	-3.8	-22.5	14.8
39	DNAAF11	1	0	-2.9	0.1	-5.9

Already shown: an excerpt of the list.
no.	gene	reagent no.	two-siRNA summed score (-2 to +2)	mean protection from cisplatin (shift in death) (%)	protection from cisplatin (shift in death), siRNA C (%)	protection from cisplatin (shift in death), siRNA D (%)
23	ANAPC13	1	0	0.6	-2.1	3.3
24	DRC9	1	0	12.9	9.4	16.3
25	PHACTR2-AS1	1	0	3.6	7	0.2
26	SWAP70	1	0	4.5	11.6	-2.6
